Experimental data as given in article PMC8184850, “Cryo-EM structure of TFIIH/Rad4–Rad23–Rad33 in damaged DNA opening in nucleotide excision repair” (Nature Communications, 2021).

Tested on: coreTFIIH (7 subunits) + Rad4-Rad23
Experiment: EMSA
Settings: AMP-PNP, 2 mM Mg2+, no co-complex, binds either TFIIH or Rad4-Rad23, EMSA: 20 mM HEPES, 100 mM K-acetate, 2 mM Mg-acetate, 5 mM DTT, room temperature 20 min, 250 nM each component, 0.2x TBE agarose gel at 4 C (pH not stated in this buffer), native protein, label: 32P 5' end (T4 PNK) in EMSA

Sequence: CATCCCACTACCTGTCCATCTTCACTCAACTATCACCC (double strand) [-15/+24 AAF]
- binding result (N-2-acetylaminofluorene adduct on the single G of strand 1 (nt 14), printed strand spans -13 to +24): no binding

Sequence: CCATCCCACTACCTGTCCATCTTCACTCA (double strand) [-14/+14 AAF]
- binding result (N-2-acetylaminofluorene adduct on the single G of strand 1 (nt 15, position 0)): no binding

The exact form of at least one protein or probe is not confirmed. A negative result means that nothing was seen under these conditions.
